Data taken from the supplement of paper PMC6445147.
Single values of this data set are uncertain.

B1: human tRNA-Pro; a variant is named by its letters at N, in order (parent)
chain: GGCTCGTTGGTCTAGNGGTATGATTCTCGCTTAGGGTGCGAGAGGTCCCGGGTTCNNATCCCGGACGAGCCC

Key:
[1] = variants of: B1; assay: tRNA Pol-III promoter activity, log2 (circRNA frequency / plasmid DNA frequency) (log2 ratio); higher = stronger promoter activity; conditions: HEK293T; construct: no Pol-II promoter ((-)CMV library)
[2] = variants of: B1; assay: tRNA 3' processing efficiency (processed reads / all reads, maximum-likelihood estimate) (fraction); higher = more efficient 3' processing; conditions: HEK293T; construct: no Pol-II promoter ((-)CMV library)
[3] = variants of: B1; assay: tRNA 5' processing efficiency (processed reads / all reads, maximum-likelihood estimate) (fraction); higher = more efficient 5' processing; conditions: HEK293T; construct: CMV Pol-II promoter ((+)CMV library, decapped)

| Variant | tRNA Pol-III promoter activity (log2) [1] | tRNA 3' processing efficiency [2] | tRNA 5' processing efficiency [3] |
| --- | --- | --- | --- |
| GGCTCGTCGGTCTAGCGGGATGATTCTCGCTTAGGGTGCGAGAGGTCCCGGGTTCAAGTCCCGGACGAGCCC [CAA T8C T19G A58G] | 6.51 | 0.33 | – |
| GGCTCGTTGGTCTTGAGGTATGATTCTCGCTTAGGGTGCGAGAGGTCCCGGGTTTGAATCCCGGACGAGCCC [AGA A14T C55T] | 6.1 | 0.33 | – |
| GGCTCGTTGGTCTAGCGGGATGATTCTCGCTTAGGGTGCGAGAGGTCCCGGGCTCAAATCCCGGACGAGCCC [CAA T19G T53C] | 3.45 | 0.75 | – |
| GGCTCGTTAGTCTTGGGGTATGATTCTCGCTTAGGGTGCGAGAGGTCCCGGGTTCAAGTCCCGGACGAGCCC [GAA G9A A14T A58G] | 3.44 | 0.6 | – |
| GGCTCGTTGGTCTACGGGTATGATTCTCGCTTAGGGTGCGAGAGGTCCCGGGTTCTAATCCCGGACGAGCCC [GTA G15C] | 1.34 | 0.55 | – |
| GGCTCGTTGGTCTGGGGGTATGATTCTCGCTTAGGGTGCGAGAGGTCCCGGGTTCCAGTCCCGGACGAGCCC [GCA A14G A58G] | 2.53 | 0.17 | – |
| GGCTCGTTGGTCTATGGGTATGATTCTCGCTTAGGGTGCGAGAGGTCCCGGGTGCAAATCCCGGACGAGCCC [GAA G15T T54G] | -0.302 | 0.4 | 0.22 |
| GGCTCGTTGGTCTTGCGGTATGATTCTCGCTTAGGGTGCGAGAGGTCCCGGGTTCGATTCCCGGACGAGCCC [CGA A14T A58T] | 5.94 | 0.25 | – |
| GGCTCGTTGGTCTAGGGGTATGATTCTCGCTTAGGGTGCGAGAGGTCCCGGGTTGAAGTCCCGGACGAGCCC [GAA C55G A58G] | -0.0288 | 0.29 | – |
| GGCTCGTAGGTCTAGGGGTATGATTCTCGCTTAGGGTGCGAGAGGTCCCGGGGTCAAATCCCGGACGAGCCC [GAA T8A T53G] | 1.66 | 0.18 | – |
| GGCTCGTTGGTCTAGGGGTATGATTCTCGCTTAGGGTGCGAGAGGTCCCGGGTTCTACTCCCGGACGAGCCC [GTA A58C] | 3.44 | 0.29 | – |
| GGCTCGTTGGTCTAGCGGTATGATTCTCGCTTAGGGTGCGAGAGGTCCCGGGTTCTTATCCCGGACGAGCCC [CTT] | 4.05 | 0.19 | – |
| GGCTCGTTGGTCTAGTGGGATGATTCTCGCTTAGGGTGCGAGAGGTCCCGGGTTCAGATCCCGGACGAGCCC [TAG T19G] | 4.46 | 0.26 | – |
| GGCTCGTTGGTCTATGGGTTTGATTCTCGCTTAGGGTGCGAGAGGTCCCGGGTTCGAATCCCGGACGAGCCC [GGA G15T A20T] | 2.13 | 0.25 | – |
| GGCTCGTTGGTCTAGTGGGATGATTCTCGCTTAGGGTGCGAGAGGTCCCGGGGTCAAATCCCGGACGAGCCC [TAA T19G T53G] | 3.68 | 0.4 | – |
| GGCTCGTTTGTCTAGGGGTATGATTCTCGCTTAGGGTGCGAGAGGTCCCGGGTTCAACTCCCGGACGAGCCC [GAA G9T A58C] | 0.0512 | 0.5 | – |
| GGCTCGTCGGTCTAGGGGTATGATTCTCGCTTAGGGTGCGAGAGGTCCCGGGGTCAAATCCCGGACGAGCCC [GAA T8C T53G] | 0.547 | 0.45 | 0.14 |
| GGCTCGTCGGTCTAGGGGTATGATTCTCGCTTAGGGTGCGAGAGGTCCCGGGTTCAAGGCCCGGACGAGCCC [GAA T8C A58G T59G] | 5.25 | 0.2 | – |

An excerpt from above, limited to tRNA 3' processing efficiency [2]:
Variant,tRNA 3' processing efficiency [2]
GGCTCGTCGGTCTAGCGGGATGATTCTCGCTTAGGGTGCGAGAGGTCCCGGGTTCAAGTCCCGGACGAGCCC [CAA T8C T19G A58G],0.33
GGCTCGTTGGTCTTGAGGTATGATTCTCGCTTAGGGTGCGAGAGGTCCCGGGTTTGAATCCCGGACGAGCCC [AGA A14T C55T],0.33
